Assay results as given in PMC5584137.
No constants are given. Whether binding was seen depends on the method and setting. Binding seen in cells or lysates may run through a third protein. Some entries that bind do so weakly or less than the wild type. For part of these data: Tags and fused reporters may be left off the sequences shown.

T1: endogenous estrogen related receptor alpha (ERR1) (human (endogenous in MCF-7 and MDA-MB-231)) (UniProt P11474)
T1 sequence: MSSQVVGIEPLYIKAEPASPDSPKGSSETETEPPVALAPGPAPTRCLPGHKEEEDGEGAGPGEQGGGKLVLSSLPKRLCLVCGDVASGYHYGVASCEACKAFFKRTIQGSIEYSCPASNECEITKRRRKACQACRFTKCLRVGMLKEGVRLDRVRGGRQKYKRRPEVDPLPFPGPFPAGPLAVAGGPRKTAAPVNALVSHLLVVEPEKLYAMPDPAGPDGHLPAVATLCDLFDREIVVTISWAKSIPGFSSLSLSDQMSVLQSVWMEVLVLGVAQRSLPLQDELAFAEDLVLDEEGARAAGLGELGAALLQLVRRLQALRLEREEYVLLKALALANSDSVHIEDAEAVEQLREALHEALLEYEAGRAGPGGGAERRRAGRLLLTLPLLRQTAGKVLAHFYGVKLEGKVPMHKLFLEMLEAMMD

T2: GST-tagged full-length KIF17 (human) (UniProt Q9P2E2)
T2 sequence: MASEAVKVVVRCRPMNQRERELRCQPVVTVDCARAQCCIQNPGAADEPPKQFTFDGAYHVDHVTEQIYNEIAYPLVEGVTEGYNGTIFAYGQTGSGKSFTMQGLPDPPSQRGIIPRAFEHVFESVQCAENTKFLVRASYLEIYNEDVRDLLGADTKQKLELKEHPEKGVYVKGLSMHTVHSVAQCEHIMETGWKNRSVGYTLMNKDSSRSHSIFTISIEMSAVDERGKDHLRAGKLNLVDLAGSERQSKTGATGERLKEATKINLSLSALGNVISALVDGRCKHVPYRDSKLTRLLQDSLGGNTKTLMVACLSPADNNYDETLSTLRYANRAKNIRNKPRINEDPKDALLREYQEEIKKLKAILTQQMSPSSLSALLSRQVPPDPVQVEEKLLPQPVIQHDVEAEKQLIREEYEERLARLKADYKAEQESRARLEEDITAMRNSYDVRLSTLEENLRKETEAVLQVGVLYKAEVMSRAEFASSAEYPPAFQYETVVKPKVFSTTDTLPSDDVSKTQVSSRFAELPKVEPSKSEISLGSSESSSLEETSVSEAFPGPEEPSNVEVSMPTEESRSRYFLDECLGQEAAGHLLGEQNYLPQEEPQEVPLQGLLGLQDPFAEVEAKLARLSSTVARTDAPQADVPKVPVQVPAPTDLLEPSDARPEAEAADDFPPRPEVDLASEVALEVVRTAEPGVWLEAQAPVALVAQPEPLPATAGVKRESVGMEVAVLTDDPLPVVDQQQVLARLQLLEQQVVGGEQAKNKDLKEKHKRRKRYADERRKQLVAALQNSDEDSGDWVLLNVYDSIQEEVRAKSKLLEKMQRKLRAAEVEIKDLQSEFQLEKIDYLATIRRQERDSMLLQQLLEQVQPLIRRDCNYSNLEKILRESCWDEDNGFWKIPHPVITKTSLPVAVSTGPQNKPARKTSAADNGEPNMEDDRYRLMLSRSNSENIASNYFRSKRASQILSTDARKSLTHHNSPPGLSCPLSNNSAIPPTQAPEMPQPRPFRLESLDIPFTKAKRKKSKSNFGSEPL

B1: endogenous KIF17 (protein, UniProt Q9P2E2 1-1029)
chain: T2 sequence
B2: full-length GFP-ERR1 (protein, UniProt P11474 1-423)
chain: T1 sequence

Experiments:
[1] = biological target: T1, endogenous estrogen related receptor alpha (ERR1) (human (endogenous in MCF-7 and MDA-MB-231)); assay: co-IP; endogenous proteins, MCF-7 lysate; overnight with 10 μg mouse anti-ERR1 antibody or non-specific control IgG, Protein-G sepharose; immunoblot
[2] = biological target: T1, endogenous estrogen related receptor alpha (ERR1) (human (endogenous in MCF-7 and MDA-MB-231)); assay: co-IP; endogenous proteins, ER-negative MDA-MB-231 cells; not shown
[3] = biological target: T2, GST-tagged full-length KIF17 (human); assay: pull-down; purified, recombinant GST-tagged proteins immobilized on glutathione-sepharose beads; GFP-ERR1 from cell lysates; not shown; only the target purified

Binder	binding [1]	binding [2]	binding [3]
B1	binds	binds	–
B2	–	–	binds
